Experimental findings from PubChem BioAssay AID1347423 (Functional Genomics Laboratory (NCATS/FGL), 2020) are described below.

The campaign covered roughly 52,000 sequences. About 210 (0.4%) were called active.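 How the source made its calls: active means gene whose silencing raises cell survival under the drug, median off-target-corrected z-score across its silencing RNAs 2 or more; inactive means the rest.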 Some of the results follow.

This experiment is described as follows: Resistance to Poly (ADP-Ribose) Polymerase inhibitor: Gene Identification via Genome-wide siRNA Screen. The settings on record: mouse BRCA2 R2336H ES cells, olaparib, CellTiter-Glo viability; stronger effect = higher value. In a few lines: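 Genome-wide siRNA screen (3 siRNAs/gene, 20 nM) in mouse ES cells carrying hypomorphic BRCA2 R2336H; olaparib 500 nM added 48 h post-transfection, CellTiter-Glo viability 72 h later. Normalized to plate-median negative control; MAD z-scores, gene median, seed-adjusted.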
For GCCAAUCAAAGACAAGCUUTT against Vkorc1l1, the z-score was inactive: -0.965.

In the case of GGACAAAGUGGCCUUUAUCTT against Decr2, the z-score is inactive: -1.68.

As for CCGUUACCUUCUUAGAAAATT against Rnf150, the z-score was inactive: -0.775. As for GGGUUAGGCCAGUUCUGAUTT against Ingaprp, the z-score is inactive: 0.705.

Consider “GGUAGCAUUAUGGGUGAGGTT against 1500004A08Rik”, for which the z-score was inactive: -1.64. In the case of “GGUACAUUAACUGACUUGGTT against Scospondin”, the z-score was inactive: -0.0203. On to CCCAACUGACAUCUUCCUATT against Gzmb, for which the z-score was inactive: 0.262. In the case of “GCCCAAACAUGCAUAUGGCTT against 2010003K11Rik”, the z-score was inactive: 1.41. On to GGCUUCAGAUUUCGAUAUGTT against Nfkb2, for which the z-score was inactive: -0.687.

Turning to GGCCAAGAUCACCAUCGUGTT against Cldn3, the z-score was inactive: 0.108.

Consider GGCACCUUUGCCUUGACAUTT against Slc26a7, for which the z-score is inactive: -1.03. Consider ACCAGAACCAGACGCGUAATT against Cox6b2, for which the z-score was inactive: 0.372. Turning to “GGACUAUUUCUUCAAUCCCTT against 2310038K02Rik”, the z-score was inactive: 1.03. For GCACAUGUGACUAGAUUUATT against Cetn2, the z-score is inactive: 1.12. Turning to GGCGAGCUGGACAGAUUUGTT against Nudt6, the z-score was inactive: -0.315. As to GGCCUUCCUGCUCAAGUUUTT against AU040576, the z-score was inactive: 0.588.

Consider GCAAGUACGCUGCUCUGUCTT against Eif4b, for which the z-score was inactive: 1.64. Turning to GGAACAAAGAGAAGUGCAGTT against Ecm1, the z-score is inactive: 0.0067. As to CGGUAACUAUGCAAAUUCATT against Ckap4, the z-score is inactive: -0.0349.

Turning to “GGAUAUCACUGAAGAGAGCTT against 4733401H18Rik”, the z-score is inactive: -0.192. Regarding CCUCGUAUUAUCAUGUGAATT against Gmppb, the z-score is inactive: -0.288. As to GGUCACCUGGUGUCAAUACTT against Reg2, the z-score is inactive: -2.93. Regarding GGGCAUAUUUGGAAUCUGATT against Rtn4, the z-score is inactive: 0.632.

Consider “GGAAGAGAGGGUGAAUAUGTT against D7Ertd743e”, for which the z-score was inactive: 0.716. As to GUACAUGUCGAUGGCAGUCTT against Fthl17, the z-score is inactive: -0.574. For the sequence CCUGAAUGACAACUAUAUCTT against Glt8d2, the z-score was inactive: 0.85. In the case of GGGACAUGAAGAAAAUGGATT against Abcf2, the z-score is inactive: 0.297.

With “CCAACUAUGCCAUCAAUAATT against 1700111A04Rik”, the z-score is inactive: 0.364. Consider GGUUAAUGGGAAACUCUGCTT against Pias3, for which the z-score was active: 2.89.

On to “GGAAGAUUCAUUCCAAAGATT against A430090L17Rik”, for which the z-score is inactive: 0.239.

GCUGAUUGCUUCACCUCAUTT against Sall2: the z-score is inactive: -0.932. As to “CGUGCUGUUUGACGGAGUGTT against 1700027M21Rik”, the z-score is inactive: 0.336. Consider GCUAAUGAAGCAGAGCUGUTT against Olfr1359, for which the z-score was inactive: -0.0798. As for GCUAACUGAAAGGUUCUUCTT against Eif3s6ip, the z-score is inactive: 0.108.

GGAGCUUAUGCAUGAGUUUTT against Slc16a3: the z-score is inactive: 0.0878. With “GCAAACGACGAAAGUCCAATT against C330046L10Rik”, the z-score is inactive: 0.564. With GGCAAAGGAUGAUUCGGCUTT against Tfam the figure was inactive: -0.333; with “GCUGAAUACGAUGAAGUCATT against ICRFP703B1614Q5.5”, inactive: 0.736; with CCAAGAGUCUAUAUCCGCUTT against Sardh, inactive: -0.392. For “GGAAAUGGAAGAGCAAAUUTT against 1500002M01Rik”, the z-score was inactive: -2.77. In the case of CCAAGCUACCAGGGUUUUUTT against Abcb9, the z-score was inactive: 0.967.

Regarding GCGACAGGAUGAGAAAGCATT against Ppm1f, the z-score is inactive: 0.402.

Turning to GGAUGGCUUUCUGUCUUUCTT against Trappc1, the z-score was inactive: 0.428. Turning to GGAAUCUCAUGACUCUACCTT against Mybpc2, the z-score is inactive: -0.161. With GCACCUGGAAAUAAAAUGCTT against Selenbp2 the figure was inactive: 0.244. For the sequence GGUAGUGUCGGAUGUGCUATT against Mab21l2, the z-score was inactive: -1.39. With GGAUAACACUGUGAGAGUUTT against Il17f, the z-score is inactive: 1.01. With GGACCAUUUACACAUUCAGTT against Kptn the figure was inactive: -0.173; with GCCUAAGUUUGACUUAUAATT against Zc3hdc1, inactive: -0.547; with GGCCUAAAUCUAAUCAAAGTT against D8Wsu49e, inactive: -0.559.

Take “CCAAACCUAUUCUGAGAUGTT against 2310020F24Rik”: the z-score was inactive: -0.288.

GGAACACUGGUAACUGUAATT against Als2cr2: the z-score was inactive: 0.226. In the case of GCUCUGAAGCUGAUACUCATT against Rab3ip, the z-score was inactive: 0.769. Consider GGUUUCUGCCAUCCAUCAGTT against Zfa, for which the z-score was inactive: -0.71. With GGUUCCAUGUUGGAUAUCATT against Stk39 the figure was inactive: 0.0941; with GGGUCCUCUGAAAGUUACCTT against Fndc5, inactive: -0.0209. With GGACCAUUCUGAAGAGCAGTT against Il5ra the figure was inactive: 0.967; with “GCCUCCACAUAGCUUCAACTT against 1110030H02Rik”, inactive: 1.14; with GGUCCGGGAGUAACUUUUCTT against Mafb, inactive: 0.362.

GGACGGCAGAAAGCAUUUATT against Olfr317: the z-score was inactive: -2.51. Take GGAAAGGUAAUCCUGACUUTT against Asb17: the z-score is inactive: -0.415. For GGGCUUUACUGACUUCAAGTT against Hexa the value was inactive: -0.584; for CCACCGAAUUCGGAAAACATT against Siat7b, inactive: -0.637.

With GGAGAUUCUGUGCAAUGCATT against Dnajc12, the z-score was inactive: 0.534. Consider GGUACAAUCCCAGAUUUGATT against Cspg6, for which the z-score was inactive: -2.2. With “GGACAGAGUUACCUAGGCATT against 5730590G19Rik”, the z-score is inactive: -1.16.
